# In patent publication US5317010A, “Parathyroid hormone analogues substituted at AA 25, 26, 27, and use in osteoporosis treatment” (Pang; Peter K. T., priority 1991, dated 1994):
# Not every detail of the peptide structures is certain; ends, links or a residue may be inferred. Ends that are not written are not given here.
# Legend:
# [1] = test system: UMR-106 rat osteosarcoma cells; assay: Intracellular free calcium concentration (FURA-2) with KCl stimulation; format: cell-based; settings: cultured UMR osteoblast cells, in the presence of KCl
# Protocol: Because osteoporosis is a progressive syndrome, a model is required and the use of cultured osteoblasts of the UMR-106.rat osteosarcoma cells, ATCC CRL 1661 have been used as the model. Uptake of calcium in these cells has been monitored using the FURA-2 method, wherein a fluorescent dye which is specific for calcium is used as a marker for calcium change into the cells. Cells are incubated with 1-10 μM of the acetomethoxy ester of FURA-2 for 30-60 minutes. Upon uptake, the ester is hydrolyzed to release free FURA-2, which selectively binds free Ca^2+. FURA-2 has a characteristic fluorescence spectrum, which wavelength is shifted when the dye binds to free Ca^2+. According to the method, Ca^2+ which is present in the cell can be quantified by exciting the dye at two different wavelengths, 340 and 380 nm. The emission fluorescence is measured at 510 nm. The calcium concentration is proportional to the ratio of the fluorescent emission when excited at 340 nm to the emission at 380 nm. It is conventional to report the concentration of calcium within the cell in terms of the fluorescence ratio, the 340/380 ratio. This technique is described in Grynkiewicz et al., J. Biol. Chem., 260, 3440 (1985) and Pang et al., P. N. A. S. (USA), 87, 623 (1990).
# Intracellular free calcium concentration was measured using the fluorescent dye FURA-2 according to the method of Grynkiewicz et al., J. Biol. Chem., 260, 3440 (1985) and Pang et al., P. N. A. S. (USA), 87, 623 (1990). UMR-106 rat osteosarcoma cells (ATCC CRL-1661) are incubated in 1-10 μM FURA-2 AM (Sigma Chemical Co., St. Louis), the acetomethoxy ester of FURA-2. Upon hydrolysis within the cell, FURA-2 is released which selectively binds to free Ca^2+. Binding to Ca^2+ shifts the fluorescent spectrum of FURA-2. Quantitation is obtained by exciting the dye at two different wavelengths, preferably 340 and 380 nm and measuring the fluorescent emission at 510 nm. The concentration of calcium is proportional to the ratio of the fluorescence emitted at 340 nm to that at 380 nm.
# KCl is used in the medium to stimulate (Ca^2+ ]i increase.
# [2] = test system: rat tail artery helical strip; assay: In vitro rat tail artery helical strip tension assay
# Source text: We have developed a method for modeling the hypotensive effects of natural and synthetic chemical compounds using helically cut tail arteries from Sprague-Dawley rats in a Sawyer-Bartlestone chamber, measuring the change in tension with a force displacement transducer. This method and the effect of bovine PTH-(1-34) in this system is described in Blood Vessels, 22, 57 (1985). […] FIGS. 12, 16 and 20 illustrate the effect of the PTH analogues of this invention as measured using this in vitro technique. Alternatively, the strips may be precontracted using other pressor substances such as norepinephrine (NE) or KCl.
# The assay was performed according to Pang et al., Blood Vessels, 22, 57 (1985). Sprague-Dawley rats were anaesthetized with pentobarbital and the tail artery excised and placed in ice-cold Krebs-Hanseleit solution (KHS) oxygenated with 95% O2, 5% CO2. […] The force generated by the strips was measured with a Grass FT03 force displacement transducer and recorded on a polygraph. […]
# One to two minutes prior to addition of a peptide, the strips were contracted by addition of either arginine vasopressin (AVP), potassium chloride (KCl) or norepinephrine (NE) to the bath. The peptide was then added to the bath and the degree of relaxation measured. […] Drug dose is calculated on the basis of the final concentration in the bath solution.
# [3] = test system: Sprague-Dawley rats; assay: In vivo blood pressure measurement in anaesthetized rats; settings: anesthetized Sprague-Dawley rats; for effect on mean arterial blood pressure: FIGS. 15, 19
# Protocol: Sprague-Dawley (S-D) rats were anaesthetized with pentobarbital and a cannula was inserted into the carotid artery. The rats were kept sedated during the procedure and were injected with PTH peptides only when the blood pressure of the rats were stable. Peptides were injected through a cannula in the jugular vein, in amounts of 1, 3 and 5 or more μg/kg and the mean systolic and diastolic blood pressure was monitored continuously throughout the procedure. Results are reported with comparison to bPTH-(1-34).
# [4] = test system: rat tail artery helical strip; settings: previously contracted by AVP; Blood Vessels, 22, 57 (1985); cited from earlier work
# [5] = test system: right atrial tissue of Sprague-Dawley rats; settings: Tenner et al. 1983; cited from earlier work
# [6] = test system: right atrial tissue of Sprague-Dawley rats; assay: In vitro atrial contractility and contraction rate measurement; settings: Sprague-Dawley rat right atrium, FIGS. 24-25
# Source text: We have also developed a method of modeling the chronotropic effects of natural and synthetic chemicals using the right atrium from Sprague-Dawleyrats and measuring the change in the force and rate of atrium contraction. This method and the effects of bovine PTH (1-34) in this system are described in Tenner et al, The Canadian Journal of Physiology and Pharmacology, Volume 61, No. 10 (1983) pp. 1162-1167. […] FIGS. 24-25 illustrate the effect of the PTH analogues of this invention as measured using this in vitro technique.
# The assay was performed according to Tenner et al., Canadian Journal of Physiology and Pharmacology, Vol. 61, No. 10 (1983) pp. 1162-1167. Sprague-Dawley rats weighing between 100 and 250 g were treated with heparin (500 IU, i.p.) 15 minutes prior to decapitation. Thoracotomies were performed and the heart rapidly excised and placed in a cold physiological salt solution (PSS) having the following composition (in millimolar): NaCl, 120; KCl, 5.63; CaCl2, 2.0; MgCl2, 2.1; NAHCO3, 25.0; dextrose, 9.7. […]
# The atrial rate and force were determined from contractions recorded by a Grass FT.03 force-displacement transducer and a Grass model 79 polygraph. The Basial atrial rate f or control atria (as determined by counting the frequency of contractions) was 258±7 bpm (n=29). […] Drug dose is calculated on the basis of the final concentration in the bath solution.
molecule,measurement,setting,value
CC[C@H](C)[C@H](NC(=O)[C@H](CCC(=O)O)NC(=O)[C@H](CO)NC(=O)[C@@H](NC(=O)[C@H](C)N)C(C)C)C(=O)N[C@@H](CCC(N)=O)C(=O)N[C@@H](Cc1ccccc1)C(=O)N[C@@H](CCSC)C(=O)N[C@@H](Cc1c[nH]cn1)C(=O)N[C@@H](CC(N)=O)C(=O)N[C@@H](CC(C)C)C(=O)NCC(=O)N[C@@H](CCCCN)C(=O)N[C@@H](Cc1c[nH]cn1)C(=O)N[C@@H](CC(C)C)C(=O)N[C@@H](CO)C(=O)N[C@@H](CO)C(=O)N[C@@H](CCSC)C(=O)N[C@@H](CCC(=O)O)C(=O)N[C@@H](CCCNC(=N)N)C(=O)N[C@H](C(=O)N[C@@H](CCC(=O)O)C(=O)N[C@@H](Cc1c[nH]c2ccccc12)C(=O)N[C@@H](CC(C)C)C(=O)N[C@@H](CCCNC(=N)N)C(=O)N[C@@H](CCCCN)C(=O)N[C@@H](CCCCN)C(=O)N[C@@H](CC(C)C)C(=O)N[C@@H](CCC(N)=O)C(=O)N[C@@H](CC(=O)O)C(=O)N[C@H](C(=O)N[C@@H](Cc1c[nH]cn1)C(=O)N[C@@H](CC(N)=O)C(=O)N[C@@H](Cc1ccccc1)C(=O)O)C(C)C)C(C)C [Cs88],effect on KCl-induced intracellular [Ca2+]i increase,[1],inhibits intracellular [Ca^2+ ]i increases
same,effect on KCl-induced intracellular [Ca2+]i increase,[1]; listed as bPTH-(1-34),inhibits the KCl effect
same,vasorelaxing effect on rat tail artery helical strip,"[2]; in vitro, FIG. 12",increases as the dosage of drugs is increased
same,tension of rat tail artery helical strips,"[2]; precontracted with KCl, norepinephrine and AVP, FIG. 16",decreases as the amount of the drug increases
same,effect on diastolic blood pressure,[3]; FIG. 10,decreases as the dosage of drugs is increased
same,effect on systolic blood pressure,[3]; FIG. 11,decreases as the dosage of drugs is increased
same,effect on mean arterial blood pressure,[3],decreases as the dosage of the drug increases
same,relaxation of helical strips of rat tail artery,[4],dose-dependent relaxation
same,chronotropic effects on rat cardiac pacemaker tissue,[5],significant dose-dependent chronotropic effects
CC[C@H](C)[C@H](NC(=O)[C@H](CCC(=O)O)NC(=O)[C@H](CO)NC(=O)[C@@H](NC(=O)[C@@H](N)CO)C(C)C)C(=O)N[C@@H](CCC(N)=O)C(=O)N[C@@H](CC(C)C)C(=O)N[C@@H](CCSC)C(=O)N[C@@H](Cc1c[nH]cn1)C(=O)N[C@@H](CC(N)=O)C(=O)N[C@@H](CC(C)C)C(=O)NCC(=O)N[C@@H](CCCCN)C(=O)N[C@@H](Cc1c[nH]cn1)C(=O)N[C@@H](CC(C)C)C(=O)N[C@@H](CC(N)=O)C(=O)N[C@@H](CO)C(=O)N[C@@H](CCSC)C(=O)N[C@@H](CCC(=O)O)C(=O)N[C@@H](CCCNC(=N)N)C(=O)N[C@H](C(=O)N[C@@H](CCC(=O)O)C(=O)N[C@@H](Cc1c[nH]c2ccccc12)C(=O)N[C@@H](CC(C)C)C(=O)N[C@@H](CCCNC(=N)N)C(=O)N[C@@H](CCCCN)C(=O)N[C@@H](CCCCN)C(=O)N[C@@H](CC(C)C)C(=O)N[C@@H](CCC(N)=O)C(=O)N[C@@H](CC(=O)O)C(=O)N[C@H](C(=O)N[C@@H](Cc1c[nH]cn1)C(=O)N[C@@H](CC(N)=O)C(=O)N[C@@H](Cc1ccccc1)C(=O)O)C(C)C)C(C)C [Cs1001],effect on KCl-induced intracellular [Ca2+]i increase,[1],lower intracellular calcium increments
same,effect on contraction rate of right atrial tissue,[6],increase the contraction rate
AVSEIQFMHNLGKHLSSMERVEWLAKKLQDVHNF [Cs99],effect on mean arterial blood pressure,[3],more of a decrease in blood pressure but still less than the PTH fragment with no substitutions
CC[C@H](C)[C@H](NC(=O)[C@H](CCC(=O)O)NC(=O)[C@H](CO)NC(=O)[C@@H](NC(=O)[C@@H](N)CO)C(C)C)C(=O)N[C@@H](CCC(N)=O)C(=O)N[C@@H](CC(C)C)C(=O)N[C@@H](CCSC)C(=O)N[C@@H](Cc1c[nH]cn1)C(=O)N[C@@H](CC(N)=O)C(=O)N[C@@H](CC(C)C)C(=O)NCC(=O)N[C@@H](CCCCN)C(=O)N[C@@H](Cc1c[nH]cn1)C(=O)N[C@@H](CC(C)C)C(=O)N[C@@H](CC(N)=O)C(=O)N[C@@H](CO)C(=O)N[C@@H](CCSC)C(=O)N[C@@H](CCC(=O)O)C(=O)N[C@@H](CCCNC(=N)N)C(=O)N[C@H](C(=O)N[C@@H](CCC(=O)O)C(=O)N[C@@H](Cc1c[nH]c2ccccc12)C(=O)N[C@@H](CC(C)C)C(=O)N[C@@H](CCCNC(=N)N)C(=O)N[C@@H](CCCCN)C(=O)N[C@@H](CCCCN)C(=O)N[C@@H](CC(C)C)C(=O)N[C@@H](CCC(N)=O)C(=O)N[C@@H](CC(=O)O)C(=O)N[C@H](C(=O)N[C@@H](Cc1c[nH]cn1)C(=O)N[C@@H](CC(N)=O)C(=O)N[C@@H](Cc1ccccc1)C(=O)O)C(C)C)C(C)C [hPTH],effect on KCl-induced intracellular [Ca2+]i increase,[1],inhibition of intracellular [Ca^2+ ]i increases
